For four molecules, binding results are on record in paper PMC7746766.

By UniProt entry, the sequences of proteins in these tests, tags left out.
UniProt P19073: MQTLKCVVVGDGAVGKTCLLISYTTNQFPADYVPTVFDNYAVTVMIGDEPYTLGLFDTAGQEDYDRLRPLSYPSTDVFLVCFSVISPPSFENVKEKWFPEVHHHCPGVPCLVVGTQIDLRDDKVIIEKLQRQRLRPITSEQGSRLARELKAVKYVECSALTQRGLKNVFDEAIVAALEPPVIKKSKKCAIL

Where two headings read alike, the source gives them in different places. No constants are given. Whether binding was seen depends on the method and setting. Some results given as binding are weak or reduced against the parent protein; the word gives no strength.

The target in test [1] is T1, Mrs6 (Rab escort protein) (S. cerevisiae) (UniProt P32864).
T1 sequence: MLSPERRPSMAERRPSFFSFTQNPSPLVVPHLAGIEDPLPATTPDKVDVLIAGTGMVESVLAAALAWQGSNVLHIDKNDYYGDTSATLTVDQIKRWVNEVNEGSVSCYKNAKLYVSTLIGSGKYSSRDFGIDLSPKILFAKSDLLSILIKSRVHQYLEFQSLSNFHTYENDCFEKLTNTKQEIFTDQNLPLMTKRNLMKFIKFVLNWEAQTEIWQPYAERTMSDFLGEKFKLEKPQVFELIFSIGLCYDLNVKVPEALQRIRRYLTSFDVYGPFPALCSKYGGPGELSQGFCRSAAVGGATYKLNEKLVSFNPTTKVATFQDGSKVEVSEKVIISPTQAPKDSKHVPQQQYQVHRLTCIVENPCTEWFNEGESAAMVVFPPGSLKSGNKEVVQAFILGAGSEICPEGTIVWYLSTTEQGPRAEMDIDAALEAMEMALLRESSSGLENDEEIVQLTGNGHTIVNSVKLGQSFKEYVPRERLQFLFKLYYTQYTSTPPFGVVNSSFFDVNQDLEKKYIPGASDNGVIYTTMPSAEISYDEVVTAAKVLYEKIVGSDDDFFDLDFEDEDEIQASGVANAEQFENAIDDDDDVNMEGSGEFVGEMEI
In words: two-hybrid; Gal4 system, pGBDU-C1 bait and pGAD-C1 prey in strain PJ694A; growth on S-D-URA-LEU media lacking histidine and containing ATA.

In test [2] the target is T1, Mrs6 (Rab escort protein) (S. cerevisiae). Described as above. The source holds these as a separate data set.

Regarding “Cdc42 (Rho-type GTPase) (from UniProt P19073 1-191)”, the binding result in test [1] is “no binding”.

B1: Ste7 (MAPKK) (protein, UniProt P06784 1-515)
chain: MFQRKTLQRRNLKGLNLNLHPDVGNNGQLQEKTETHQGQSRIEGHVMSNINAIQNNSNLFLRRGIKKKLTLDAFGDDQAISKPNTVVIQQPQNEPVLVLSSLSQSPCVSSSSSLSTPCIIDAYSNNFGLSPSSTNSTPSTIQGLSNIATPVENEHSISLPPLEESLSPAAADLKDTLSGTSNGNYIQLQDLVQLGKIGAGNSGTVVKALHVPDSKIVAKKTIPVEQNNSTIINQLVRELSIVKNVKPHENIITFYGAYYNQHINNEIIILMEYSDCGSLDKILSVYKRFVQRGTVSSKKTWFNELTISKIAYGVLNGLDHLYRQYKIIHRDIKPSNVLINSKGQIKLCDFGVSKKLINSIADTFVGTSTYMSPERIQGNVYSIKGDVWSLGLMIIELVTGEFPLGGHNDTPDGILDLLQRIVNEPSPRLPKDRIYSKEMTDFVNRCCIKNERERSSIHELLHHDLIMKYVSPSKDDKFRHWCRKIKSKIKEDKRIKREALDRAKLEKKQSERSTH
On to B1, for which the binding entry in test [2] was “binds”.

B2: Ssk1 protein (protein, UniProt Q07084 1-712)
chain: MLNSALLWKVWLRIDNSTDEVNQPIAVQFDEIDTVDDLKSRFFQKLSSTRWREINDNASIAIGLYAPKFDNQADNTSSNNTNDNSCRSKSNGAGSGANLSVNSNTKSSVSPTAGSFGLSKDLAKDRNVLQHPKPTQKRGALYDAFAAVPTVAATTNVDFPPNEAPMLSPQRPYSTSPKQFPATTKSPLLRFASVSPYPKFHSDNQIMASAGLTYVSPHNKNKYTRPLIRKGLNFTTESVNDCTYKIIFEPDELAINIYKELFGTMGSQPASQPLLIFSNVNLRQDVPPLDILNVVDYVPTNEEISQQKTQPTDHGAVGVFHLDDHISPGEQGLKQTIGDKADLKGKDGNSSPQEFKLITDEEQLRRASQELKDEEKDAESPWQAILLLPKGYKGGVDFRNKPVAHTDSSFNNEDTITHSELEVNTGSPSQESGSLNEAGIGITQPMSEVQRRKEDVTPASPILTSSQTPHYSNSLYNAPFAVSSPPDPLPNLFTTTSEKVFPKINVLIVEDNVINQAILGSFLRKHKISYKLAKNGQEAVNIWKEGGLHLIFMDLQLPVLSGIEAAKQIRDFEKQNGIGIQKSLNNSHSNLEKGTSKRFSQAPVIIVALTASNSQMDKRKALLSGCNDYLTKPVNLHWLSKKITEWGCMQALIDFDSWKQGESRMTDSVLVKSPQKPIAPSNPHSFKQATSMTPTHSPVRKNSNLSPTQIEL
In the case of B2, the binding result in test [2] is “binds weakly”.

B3: Ste20 (PAK kinase, MAPKKKK) (protein, UniProt Q03497 1-939)
chain: MSNDPSAVSELPDKDSLDNGISNDNERAMGGNGDGGDGLRLPRTTGTLNVNALQKGTNAAHEAGGYKSMDPAKNAETTNDDDNNVVSLDDPIQFTRVSSSSVISGMSSSMSPHSNIDETKSLEAVTPNINTSNITPDHSADNTFSTINASESDHQFNDTLLSKLSLTDSTETIENNATVKHQQPVASSTVNSNKSSTDIRRATPVSTPVISKPSMTTTPRQINSASHSLSNPKHKQHKPKVKPSKPEAKSKPVSVKKSFPSKNPLKNSSPPKKQTEKSYYSSSSKKRKSGSNSGTLRMKDVFTSFVQNIKRNSQDDKRASSSSNNSSSSSITTALRISTPYNAKHIHHVGVDSKTGEYTGLPEEWEKLLTSSGISKREQQQNMQAVMDIVKFYQDVTETNGEDKMFKTFNTTTGLPGSPQVSTPPANSFNKFPPSTSDSHNYGSRTGTPMSNHVMSPTLNTDSSSANGKFIPSRPAPKPPSSASASAPIIKSPVMNSAANVSPLKQTHAPTTPNRTSPNRSSISRNATLKKEEQPLPPIPPTKSKTSPIISTAHTPQQVAQSPKAPAQETVTTPTSKPAQARSLSKELNEKKREERERRKKQLYAKLNEICSDGDPSTKYANLVKIGQGASGGVYTAYEIGTNVSVAIKQMNLEKQPKKELIINEILVMKGSKHPNIVNFIDSYVLKGDLWVIMEYMEGGSLTDVVTHCILTEGQIGAVCRETLSGLEFLHSKGVLHRDIKSDNILLSMEGDIKLTDFGFCAQINELNLKRTTMVGTPYWMAPEVVSRKEYGPKVDIWSLGIMIIEMIEGEPPYLNETPLRALYLIATNGTPKLKEPENLSSSLKKFLDWCLCVEPEDRASATELLHDEYITEIAEANSSLAPLVKLARLKKVAENMDADEDNDDDNDNEHINKTNNCDDNNDSKETVNLDVTEDDKQK
For B3, in test [2], the binding entry is recorded as “binds”.
